From doi:10.1101/2025.02.04.636487
These are yes or no findings as the source states them, for the method shown. In cells and extracts the contact can be indirect. Here binding means that the protein was enriched with, or labelled near, the bait; the list need not be complete. Where a sequence is shown, tags or fusion partners need not be part of it.

Amino acid sequences for entries named in this document (tags omitted).
UniProt Q9NYF8: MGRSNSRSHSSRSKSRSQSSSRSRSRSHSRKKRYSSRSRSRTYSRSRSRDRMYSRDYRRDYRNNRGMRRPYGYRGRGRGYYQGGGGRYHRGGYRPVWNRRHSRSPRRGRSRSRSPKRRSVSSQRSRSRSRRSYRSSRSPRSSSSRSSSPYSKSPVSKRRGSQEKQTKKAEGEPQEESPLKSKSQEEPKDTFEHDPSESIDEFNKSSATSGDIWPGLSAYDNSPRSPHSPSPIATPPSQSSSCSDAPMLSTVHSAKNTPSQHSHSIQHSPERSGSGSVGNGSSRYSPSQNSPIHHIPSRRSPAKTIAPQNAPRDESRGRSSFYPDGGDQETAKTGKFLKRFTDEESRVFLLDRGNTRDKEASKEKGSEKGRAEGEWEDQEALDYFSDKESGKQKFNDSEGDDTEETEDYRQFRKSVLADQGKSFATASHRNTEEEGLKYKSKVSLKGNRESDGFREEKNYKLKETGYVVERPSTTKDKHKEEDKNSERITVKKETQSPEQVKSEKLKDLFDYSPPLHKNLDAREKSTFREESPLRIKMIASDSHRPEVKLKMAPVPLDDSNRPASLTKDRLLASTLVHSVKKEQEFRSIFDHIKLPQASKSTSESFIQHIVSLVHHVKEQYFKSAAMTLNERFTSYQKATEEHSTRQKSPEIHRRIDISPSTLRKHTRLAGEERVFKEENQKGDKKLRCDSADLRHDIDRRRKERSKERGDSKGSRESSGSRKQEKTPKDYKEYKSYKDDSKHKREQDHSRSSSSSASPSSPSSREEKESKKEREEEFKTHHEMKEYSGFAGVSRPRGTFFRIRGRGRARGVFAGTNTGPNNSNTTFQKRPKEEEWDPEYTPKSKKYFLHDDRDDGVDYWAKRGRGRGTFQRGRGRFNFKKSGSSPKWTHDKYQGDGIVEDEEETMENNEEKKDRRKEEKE

Target: T1, Flag-FERM-PTK2 (FERM domain of Protein Tyrosine Kinase 2) (UniProt Q05397)
T1 sequence: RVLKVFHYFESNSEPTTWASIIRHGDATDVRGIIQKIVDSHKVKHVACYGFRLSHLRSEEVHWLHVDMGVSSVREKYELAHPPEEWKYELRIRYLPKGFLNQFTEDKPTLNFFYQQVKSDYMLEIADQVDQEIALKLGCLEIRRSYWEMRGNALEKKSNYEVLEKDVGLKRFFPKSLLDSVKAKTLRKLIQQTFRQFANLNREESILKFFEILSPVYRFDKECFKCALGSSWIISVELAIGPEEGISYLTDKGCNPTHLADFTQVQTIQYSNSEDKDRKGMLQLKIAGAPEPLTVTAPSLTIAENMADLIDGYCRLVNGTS
Assay: affinity purification with mass spectrometry

binding: binds
Substance: Bcl-2-associated transcription factor 1 (Bclaf1), endogenous in HEK-293T cells (from UniProt Q9NYF8 1-920)
